No constants are given. Whether binding was seen depends on the method and setting. Binding seen in cells or lysates may run through a third protein. Some entries that bind do so weakly or less than the wild type.

Protein sequences, listed by entry. Tags and fused reporters are not part of them. Lines headed by an entry give the natural chain unless they say otherwise; changes in a name come on top.
UniProt P35372: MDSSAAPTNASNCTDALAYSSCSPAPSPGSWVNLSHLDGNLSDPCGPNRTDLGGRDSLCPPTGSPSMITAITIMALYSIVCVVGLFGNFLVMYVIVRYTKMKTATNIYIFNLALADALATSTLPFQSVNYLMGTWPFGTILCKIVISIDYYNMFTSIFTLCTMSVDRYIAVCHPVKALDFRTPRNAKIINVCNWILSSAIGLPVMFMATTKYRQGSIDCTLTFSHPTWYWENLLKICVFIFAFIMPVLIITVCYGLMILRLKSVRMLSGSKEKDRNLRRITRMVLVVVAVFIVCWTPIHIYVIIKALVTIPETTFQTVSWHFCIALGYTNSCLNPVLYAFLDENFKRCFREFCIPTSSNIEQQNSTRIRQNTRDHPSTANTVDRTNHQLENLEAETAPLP
UniProt P08172: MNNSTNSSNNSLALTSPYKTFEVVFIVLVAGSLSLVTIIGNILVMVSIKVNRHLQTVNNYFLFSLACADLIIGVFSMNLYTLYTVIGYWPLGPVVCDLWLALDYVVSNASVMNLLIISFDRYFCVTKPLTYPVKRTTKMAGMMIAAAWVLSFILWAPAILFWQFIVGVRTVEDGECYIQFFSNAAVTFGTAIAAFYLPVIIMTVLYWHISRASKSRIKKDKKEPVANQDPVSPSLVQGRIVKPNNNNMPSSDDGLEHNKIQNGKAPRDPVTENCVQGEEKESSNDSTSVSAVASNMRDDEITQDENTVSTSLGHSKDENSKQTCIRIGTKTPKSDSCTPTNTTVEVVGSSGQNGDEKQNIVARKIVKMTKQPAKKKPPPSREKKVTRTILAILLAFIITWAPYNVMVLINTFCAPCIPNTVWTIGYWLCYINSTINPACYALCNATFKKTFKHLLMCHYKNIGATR
UniProt P09471: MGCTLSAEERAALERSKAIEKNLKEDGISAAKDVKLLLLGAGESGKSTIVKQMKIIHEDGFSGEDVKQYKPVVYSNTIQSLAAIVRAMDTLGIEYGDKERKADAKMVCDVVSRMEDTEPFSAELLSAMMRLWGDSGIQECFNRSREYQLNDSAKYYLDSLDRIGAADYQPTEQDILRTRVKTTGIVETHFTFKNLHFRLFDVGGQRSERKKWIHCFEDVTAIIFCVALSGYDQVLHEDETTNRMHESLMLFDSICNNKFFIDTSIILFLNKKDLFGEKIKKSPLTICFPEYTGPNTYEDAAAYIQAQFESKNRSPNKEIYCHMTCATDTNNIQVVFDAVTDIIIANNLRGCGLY
UniProt P63215: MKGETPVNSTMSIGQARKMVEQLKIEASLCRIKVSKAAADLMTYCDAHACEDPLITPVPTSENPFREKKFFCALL

Assay [1] has as its target μ-opioid receptor with C-terminal split-YFP fragment YN (MOR-YN) (UniProt P35372). Nature of the assay: split reporter; split-YFP BiFC; HEK293T co-transfected with GPCR-YN (M2R, MOR or β2AR), Gαo-YC (wild-type, mutants or ins4A) and Gβ3γ9 at 2.5:2.5:1; fixed cells, confocal microscopy; steady state and after agonist (100 μM ACh, 1 μM fentanyl or 10 μM isoproterenol).
Assay [2] concerns the target M2 muscarinic acetylcholine receptor with C-terminal split-YFP fragment YC (M2R-YC) (UniProt P08172). Nature of the assay: split reporter; split-YFP BiFC; HEK293T co-transfected with M2R-YC, YN-Gγ3 (bicistronic with Gβ3) and untagged Gαo variants or empty plasmid; fixed cells, confocal microscopy; 100 μM ACh for 7 min.

For the substance “Gαo wild-type with internal split-YFP fragment YC at Gly92 (Gαo-YC) (from UniProt P09471 1-354)”, the binding entry in assay [1] is on record as “binds”.

Take “Gγ3 with N-terminal split-YFP fragment YN (YN-Gγ3), from the T2A-based bicistronic Gβ3-YN-Gγ3 construct (from UniProt P63215 1-75)”: the binding result in assay [2] is reported as “binds”.

These data come from article PMC12746902, “Pathogenic Gαo Mutants Drive Dominant GPCR Coupling in GNAO1 Encephalopathies” (The FASEB Journal, 2025).
